Results are given in words; binding and its absence hold for the method and conditions named. In cells and extracts the contact can be indirect. Some binding calls cover weakened binding; strength is not graded here. For part of these data: Where a sequence is shown, tags or fusion partners need not be part of it.

One test has as its target T1, Bgcn-GFP (Drosophila) (UniProt Q9W1I2).
T1 sequence: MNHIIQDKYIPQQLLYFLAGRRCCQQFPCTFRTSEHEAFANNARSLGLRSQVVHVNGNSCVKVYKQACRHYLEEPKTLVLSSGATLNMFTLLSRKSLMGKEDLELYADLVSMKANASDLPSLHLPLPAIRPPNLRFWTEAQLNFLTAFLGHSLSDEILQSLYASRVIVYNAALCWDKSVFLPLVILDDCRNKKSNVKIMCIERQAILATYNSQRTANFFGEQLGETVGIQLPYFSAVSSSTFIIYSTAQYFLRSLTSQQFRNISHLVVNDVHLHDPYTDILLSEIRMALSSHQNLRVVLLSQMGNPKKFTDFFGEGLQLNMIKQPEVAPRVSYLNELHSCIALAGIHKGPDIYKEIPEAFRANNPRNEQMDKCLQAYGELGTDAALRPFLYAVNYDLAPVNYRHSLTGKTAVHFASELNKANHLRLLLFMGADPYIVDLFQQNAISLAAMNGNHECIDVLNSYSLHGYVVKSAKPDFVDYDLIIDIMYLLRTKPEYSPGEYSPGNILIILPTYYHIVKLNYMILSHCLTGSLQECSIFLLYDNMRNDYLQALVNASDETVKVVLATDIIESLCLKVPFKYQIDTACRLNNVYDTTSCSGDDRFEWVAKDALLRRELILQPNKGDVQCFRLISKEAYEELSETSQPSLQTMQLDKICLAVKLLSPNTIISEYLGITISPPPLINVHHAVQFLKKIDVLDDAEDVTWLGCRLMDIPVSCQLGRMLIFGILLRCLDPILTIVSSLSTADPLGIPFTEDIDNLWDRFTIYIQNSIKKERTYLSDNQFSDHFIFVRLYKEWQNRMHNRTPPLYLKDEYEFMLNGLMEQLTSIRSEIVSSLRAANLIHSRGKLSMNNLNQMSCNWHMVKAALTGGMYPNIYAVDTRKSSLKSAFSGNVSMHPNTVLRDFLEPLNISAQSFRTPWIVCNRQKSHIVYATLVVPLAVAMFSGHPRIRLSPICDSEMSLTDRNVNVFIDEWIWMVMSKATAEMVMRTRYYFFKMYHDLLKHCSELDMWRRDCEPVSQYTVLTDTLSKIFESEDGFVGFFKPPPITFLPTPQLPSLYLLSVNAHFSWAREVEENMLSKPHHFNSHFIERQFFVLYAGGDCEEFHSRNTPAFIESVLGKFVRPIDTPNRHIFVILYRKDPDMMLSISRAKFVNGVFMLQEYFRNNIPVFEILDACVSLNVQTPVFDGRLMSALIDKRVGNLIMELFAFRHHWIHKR
In words: co-IP; testis extracts of bamP-bam-HA/+; bgcnP-bgcn-GFP/+ flies immunoprecipitated with anti-GFP beads; Western blot with anti-HA and anti-GFP. In general terms: In western blotting, separated proteins are transferred to a membrane and probed.

Another test concerns the target T2, Tut-TAP (Drosophila) (UniProt Q8IQA2).
T2 sequence: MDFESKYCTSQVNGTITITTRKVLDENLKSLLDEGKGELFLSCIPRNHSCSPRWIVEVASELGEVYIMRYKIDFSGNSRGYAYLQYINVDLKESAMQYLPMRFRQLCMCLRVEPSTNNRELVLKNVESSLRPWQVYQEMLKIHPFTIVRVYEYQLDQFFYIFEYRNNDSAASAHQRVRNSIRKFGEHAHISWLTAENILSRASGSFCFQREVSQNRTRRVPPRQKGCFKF
Kind of test: co-IP; testis extracts (300-500 pairs of testes) of tutP-tutTAP; bamP-bgcnGFP flies immunoprecipitated with IgG beads; Western blot.

Another test addresses T3, Myc-Tut (Drosophila) (UniProt Q8IQA2).
T3 sequence: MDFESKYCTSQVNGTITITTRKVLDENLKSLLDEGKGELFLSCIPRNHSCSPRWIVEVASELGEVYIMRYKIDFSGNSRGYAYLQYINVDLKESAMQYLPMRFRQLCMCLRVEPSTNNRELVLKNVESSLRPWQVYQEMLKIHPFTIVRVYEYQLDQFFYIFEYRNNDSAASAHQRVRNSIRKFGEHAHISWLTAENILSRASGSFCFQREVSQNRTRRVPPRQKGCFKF
Kind of test: co-IP; S2 cells over-expressing Flag-Bam and Myc-Tut; lysates immunoprecipitated with anti-Myc or anti-Flag beads, 4 h at 4°C, Western blot.

In test [1] the target is T4, Flag-Myc-Bgcn (Drosophila) (UniProt Q9W1I2).
T4 sequence: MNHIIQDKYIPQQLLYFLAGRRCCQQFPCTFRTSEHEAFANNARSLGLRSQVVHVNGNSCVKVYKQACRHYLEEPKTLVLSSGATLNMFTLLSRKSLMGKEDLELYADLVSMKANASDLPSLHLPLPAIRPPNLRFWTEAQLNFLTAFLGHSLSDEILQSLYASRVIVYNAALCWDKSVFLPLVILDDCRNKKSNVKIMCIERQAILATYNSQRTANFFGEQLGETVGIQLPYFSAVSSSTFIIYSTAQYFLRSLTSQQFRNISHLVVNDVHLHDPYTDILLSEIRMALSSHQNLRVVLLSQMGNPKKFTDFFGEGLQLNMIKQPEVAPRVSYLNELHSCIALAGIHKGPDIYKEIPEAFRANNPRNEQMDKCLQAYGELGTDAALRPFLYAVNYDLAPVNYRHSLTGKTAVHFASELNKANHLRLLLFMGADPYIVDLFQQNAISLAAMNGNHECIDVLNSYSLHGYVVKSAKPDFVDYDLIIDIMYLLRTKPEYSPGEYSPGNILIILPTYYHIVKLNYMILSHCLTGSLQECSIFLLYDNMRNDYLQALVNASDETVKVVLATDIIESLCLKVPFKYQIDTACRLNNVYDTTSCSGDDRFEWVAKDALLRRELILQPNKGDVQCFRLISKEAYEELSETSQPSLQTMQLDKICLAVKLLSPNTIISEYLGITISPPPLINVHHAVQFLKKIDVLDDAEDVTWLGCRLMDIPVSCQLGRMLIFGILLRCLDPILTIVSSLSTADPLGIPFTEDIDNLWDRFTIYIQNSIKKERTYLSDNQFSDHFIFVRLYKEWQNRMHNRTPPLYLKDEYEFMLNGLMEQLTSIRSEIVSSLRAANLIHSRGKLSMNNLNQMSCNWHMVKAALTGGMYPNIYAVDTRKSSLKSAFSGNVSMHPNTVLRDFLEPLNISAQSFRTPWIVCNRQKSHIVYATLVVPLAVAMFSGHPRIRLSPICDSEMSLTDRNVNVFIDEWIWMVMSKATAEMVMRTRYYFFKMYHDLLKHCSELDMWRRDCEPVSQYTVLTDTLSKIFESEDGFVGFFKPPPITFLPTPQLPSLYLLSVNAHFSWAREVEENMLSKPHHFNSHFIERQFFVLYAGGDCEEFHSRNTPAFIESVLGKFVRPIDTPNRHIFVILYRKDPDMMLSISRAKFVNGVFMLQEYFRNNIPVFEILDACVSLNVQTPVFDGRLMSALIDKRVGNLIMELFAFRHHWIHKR
In words: co-IP; S2 cell lysates incubated with 0.5 µg/uL RNaseA for 30 min at room temperature, then immunoprecipitated with anti-Myc beads; Western blot for TAP-, Flag- or Myc-tagged proteins.

The target of test [2] is T4, Flag-Myc-Bgcn (Drosophila). Kind of test: co-IP; two-step co-immunoprecipitation from S2 cells co-expressing TAP-Tut, Flag-Bam and Flag-Myc-Bgcn: IgG beads, TEV elution, then anti-Myc beads; Western blot with anti-SBP, anti-Flag, anti-Myc.
For a further test, the target named is T5, TAP-Tut (Drosophila) (UniProt Q8IQA2).
T5 sequence: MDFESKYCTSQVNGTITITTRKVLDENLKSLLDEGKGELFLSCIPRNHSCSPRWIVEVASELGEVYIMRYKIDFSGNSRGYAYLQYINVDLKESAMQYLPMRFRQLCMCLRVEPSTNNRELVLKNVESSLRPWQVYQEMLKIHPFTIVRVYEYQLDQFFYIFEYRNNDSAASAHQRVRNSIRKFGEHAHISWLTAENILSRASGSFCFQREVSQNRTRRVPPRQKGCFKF
The description is as above.

B1: Bam-HA (protein, UniProt P22745 1-442)
chain: MLNARDVCPEGNDDQQLDHNFKQMEEHLALMVEGNENEDPRKATCEYEDTNEDGATCTSGVLSEIQENFGRLRLCDVTAPLLEFHGLDCLQQIQKRSRHFAFDGSPAKKSRSGGVLVTGPKQKQLQKENVWNRKSKGSASADNIEKLPITIEKLHMIGLHGDCLEHNAVLRLMNLFRSLHDHLTADLGFSRQNSMPSDYLFDMPVKSTMPKSLNVRYQLQVLCTKVERFLVQQRRTLEANRHFDFEKYDECDKLLKGFASYLDNFKLLLKPKMRNRNGNSGSNADKFHTQRMERLLIGLRDWIKAAHLSVHVFNWEMDLEHRYSGAMTESHKSLNERAILLSGAELRAAEARGISAEDLFIAQRYKLGGPIYCVLEQHEFLSALIANPETYFPPSVVAICGPQKLGAVSMEQPSASEEEFEETEEVPSSPPRHTGRVPRFRS
Turning to B1, the binding entry with Bgcn-GFP (Drosophila) was “binds”.

B2: Bam (protein, UniProt P22745 1-442)
chain: MLNARDVCPEGNDDQQLDHNFKQMEEHLALMVEGNENEDPRKATCEYEDTNEDGATCTSGVLSEIQENFGRLRLCDVTAPLLEFHGLDCLQQIQKRSRHFAFDGSPAKKSRSGGVLVTGPKQKQLQKENVWNRKSKGSASADNIEKLPITIEKLHMIGLHGDCLEHNAVLRLMNLFRSLHDHLTADLGFSRQNSMPSDYLFDMPVKSTMPKSLNVRYQLQVLCTKVERFLVQQRRTLEANRHFDFEKYDECDKLLKGFASYLDNFKLLLKPKMRNRNGNSGSNADKFHTQRMERLLIGLRDWIKAAHLSVHVFNWEMDLEHRYSGAMTESHKSLNERAILLSGAELRAAEARGISAEDLFIAQRYKLGGPIYCVLEQHEFLSALIANPETYFPPSVVAICGPQKLGAVSMEQPSASEEEFEETEEVPSSPPRHTGRVPRFRS
With B2, the binding entry in the test with Tut-TAP (Drosophila) was “binds”.

B3: Flag-Bam (protein, UniProt P22745 1-442)
chain: MLNARDVCPEGNDDQQLDHNFKQMEEHLALMVEGNENEDPRKATCEYEDTNEDGATCTSGVLSEIQENFGRLRLCDVTAPLLEFHGLDCLQQIQKRSRHFAFDGSPAKKSRSGGVLVTGPKQKQLQKENVWNRKSKGSASADNIEKLPITIEKLHMIGLHGDCLEHNAVLRLMNLFRSLHDHLTADLGFSRQNSMPSDYLFDMPVKSTMPKSLNVRYQLQVLCTKVERFLVQQRRTLEANRHFDFEKYDECDKLLKGFASYLDNFKLLLKPKMRNRNGNSGSNADKFHTQRMERLLIGLRDWIKAAHLSVHVFNWEMDLEHRYSGAMTESHKSLNERAILLSGAELRAAEARGISAEDLFIAQRYKLGGPIYCVLEQHEFLSALIANPETYFPPSVVAICGPQKLGAVSMEQPSASEEEFEETEEVPSSPPRHTGRVPRFRS
Regarding B3, the binding entry (in the test with Myc-Tut (Drosophila); in test [1]; in test [2]; with TAP-Tut (Drosophila)) was “binds” in each case.

These data come from article PMC4238977.
